In all, about 130,000 compounds went through this assay and about 1,000 (0.77%) were called active. Inconclusive means that the source gave no clear call. Such entries were picked first, then a sample of the others.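 Rule for the calls: active = activation at 2 µM above a set limit, confirmed on inspection of the cell images; inconclusive = above the set limit but not confirmed on image inspection; inactive = the rest.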
assay: activators of insulin promoter-driven GFP, primary screen, imaging, TRM-6 cells (human fetal islet line), eGFP reporter, cell count (AID 1296;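 note: share of cells whose green reporter signal exceeds an intensity cutoff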); details: at 2 µM, hits give high values, plate-scaled: unstimulated 0, stimulated control 100
Outline: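 System – TRM-6 insulin promoter–eGFP reporter cells · Probe or stimulus – 0.75 µM tamoxifen as reporter inducer · Dosing – single-point 2 µM compound dose · Incubation – tamoxifen pre-incubation 15 h overnight, then compound exposure 48 h at 37 °C · Measured by – fixed-cell fluorescence microscopy, eGFP plus Hoechst · Evaluation – percent GFP-positive cells normalized to per-plate controls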

Q: Which activation does the source give for COc1ccc(N/C(N)=N/c2nc(CSc3ccc(Cl)cc3)cc(=O)[nH]2)cc1 here?
A: inconclusive: 571%

Q: With CCCc1nc2sc3c(SCC(=O)NCc4ccco4)ncnc3c2c2c1CCC2 as the compound, how does the activation read?
A: inactive: 3.7%

Q: Which activation does the source give for COc1cc(C(O)P(=O)(OC2CCCCC2)c2ccc(N(C)C)cc2)cc(OC)c1OC (stereo not drawn) here?
A: inconclusive: 146%

Q: With CC(C)(C)N(Cc1ccccc1)C(=O)CSc1nc2ccccc2c(=O)[nH]1 as the compound, how does the activation read?
A: inconclusive: 600%

Q: Which activation does the source give for COc1ccccc1NC(=O)CCc1nc(-c2ccccc2F)no1 here?
A: active: 305%

Q: With COC(=O)Nc1nc2ccc(Sc3ccccc3)cc2[nH]1 as the compound, how does the activation read?
A: inconclusive: 257% [cytotoxic]

Q: With CCOC(=O)c1cccc(NC(=O)CSc2nnc(-c3ccoc3C)n2CCOC)c1 as the compound, how does the activation read?
A: inconclusive: 89.2%

Q: Which activation does the source give for CC(=O)CSc1nc2cc3c(cc2cc1C#N)OCCO3 here?
A: inconclusive: 346%

Q: Which activation does the source give for Cc1cccc(CSc2nnc(Cn3c(=O)sc4ccccc43)n2C)c1 here?
A: inactive: -50%

Q: For Cc1ccc(C2=NN(S(=O)(=O)c3ccccc3)C(c3ccccc3O)C2)cc1 (stereo not drawn), which activation is on record?
A: inconclusive: 323%

Q: Which activation does the source give for COc1ccc(S(=O)(=O)Nc2ccc(N(C)C(C)=O)cc2)cc1 here?
A: active: 103%

Q: With O=C(COc1ccccc1-c1ccccc1)N/N=C/c1cccc2ccccc12 as the compound, how does the activation read?
A: inconclusive: 150% [cytotoxic]

Q: For COc1ccc(NC(=O)/C(Cl)=C(/Cl)S(=O)Cc2ccc(Cl)cc2)cn1 (stereo not drawn), which activation is on record?
A: inconclusive: 388% [cytotoxic]

Q: Which activation does the source give for Cc1ccc(CCNC(=O)CCc2nc3ccccc3[nH]2)cc1 here?
A: inactive: 5.41%

Q: For Cc1ccc2nc3cc([N+](=O)[O-])cc([N+](=O)[O-])c3cc2c1, which activation is on record?
A: inconclusive: 488%

Q: With CCn1c(Cc2ccccc2)nnc1SCC(=O)Nc1nccs1 as the compound, how does the activation read?
A: inconclusive: 80%

Q: With COC(=O)c1cc(OC)c(OC)cc1NC(=O)c1cc(C)on1 as the compound, how does the activation read?
A: inconclusive: 680%

Q: With Cc1ccc(CN(Cc2ccco2)S(=O)(=O)c2ccc(S(=O)(=O)NCC3CCCO3)cc2)cc1 (stereo not drawn) as the compound, how does the activation read?
A: inactive: 0%

Q: For COc1ccc(CCCC(=O)Nc2ccc(F)cc2)cc1, which activation is on record?
A: inactive: 7.69%

Q: Which activation does the source give for CCCN(CCC)c1nc(N)nc(-c2cc(Cl)ccc2OC)n1 here?
A: active: 82.9%

Q: With Cc1ccc(/C(O)=C2/C(=O)C(=O)N(CCN3CCOCC3)C2c2cccs2)cc1 (stereo not drawn) as the compound, how does the activation read?
A: inactive: 8.33%

Q: With Cc1ccsc1/C=N/NC(=O)c1cc(-c2ccncc2)nc2ccccc12 as the compound, how does the activation read?
A: inconclusive: 362% [cytotoxic]

Q: For CCOC(=O)c1c(-n2cnnn2)sc(C)c1C, which activation is on record?
A: inconclusive: 157%

Q: Which activation does the source give for Cc1cc(C(=O)NC(C)c2ccc3c(c2)OCO3)cs1 (stereo not drawn) here?
A: inconclusive: 425%

Q: For CC(C)(C)C(=O)C(Cc1ccccc1)n1cncn1 (stereo not drawn), which activation is on record?
A: inactive: -2.78%

Q: For O=C(O)C(Cc1c[nH]c2ccccc12)NS(=O)(=O)c1ccccc1 (stereo not drawn), which activation is on record?
A: inconclusive: 338%

Q: With COC(=O)c1ccc(OC)c(CSc2nnc(-c3ccc(C(C)(C)C)cc3)o2)c1 as the compound, how does the activation read?
A: active: 508%

Q: For COc1cc(S(=O)(=O)N2CCCCC2)ccc1NC=O, which activation is on record?
A: inconclusive: 96.4%

Q: For CCOC(=O)c1ccc(CC(=O)c2ccc(O)cc2O)o1, which activation is on record?
A: inconclusive: 84.4%

Q: For CCNC(=S)N1CCN(c2ccccc2OCC)CC1, which activation is on record?
A: inconclusive: 269%

Q: For O=C1C2C3C=CC(C3)C2C(=O)N1CN(Cc1ccccc1)CN1C(=O)C2C3C=CC(C3)C2C1=O (stereo not drawn), which activation is on record?
A: inconclusive: 136%

Q: Which activation does the source give for Cc1cccc(-c2nsc(SCC(=O)NCC3CCCO3)n2)c1 (stereo not drawn) here?
A: inactive: 9.09%

Q: With Cc1cccn2c(=O)c3cc(C#N)c(=O)n(CC4CCCO4)c3nc12 (stereo not drawn) as the compound, how does the activation read?
A: inactive: 3.23%

Q: For CCOc1ccc2c(c1)C(C)=CC(C)(C)N2C(=O)Nc1ccccc1, which activation is on record?
A: active: 80.6%

Q: For Cc1cc(NC(=O)c2ccc(S(=O)(=O)N(C)CC3CCCO3)cc2)no1 (stereo not drawn), which activation is on record?
A: active: 414%

Q: For Cc1ccc(NC(=O)N2CCCN(Cc3ccc(F)cc3)C2)cc1C, which activation is on record?
A: inconclusive: 129%

Q: Which activation does the source give for COc1nc(N(C)C)nc(N(C#N)CCOC(C)=O)n1 here?
A: inconclusive: 283%

Q: For CC(C)c1onc(C(=O)N2CCN(C(c3ccccc3)c3ccccc3)CC2)c1[N+](=O)[O-], which activation is on record?
A: inconclusive: 400% [cytotoxic]

Q: For CC1(C)CC(=O)C2=C(C1)Nc1cc3c(cc1C2c1ccc(F)cc1)OCO3 (stereo not drawn), which activation is on record?
A: active: 100%

Q: Which activation does the source give for C=CCN1C(=O)/C(=C/c2ccc(N(C)C)cc2)S/C1=N\c1nnc(CC)s1 here?
A: active: 163%

Q: Which activation does the source give for CCC(=O)N1CCN(c2nc(-c3ccc(Cl)cc3)cs2)CC1 here?
A: active: 464%

Q: For N#Cc1cccc(NC(=O)CSc2ccc3c4c(cccc24)C(=O)c2ccccc2-3)c1, which activation is on record?
A: active: 233%

Q: Which activation does the source give for O=C(N/N=C/c1ccc[nH]1)c1cccc([N+](=O)[O-])c1 here?
A: inconclusive: 280%

Q: With COc1cc(C)nc(N2CCCC(C(=O)Nc3cc(Cl)ccc3OC)C2)n1 (stereo not drawn) as the compound, how does the activation read?
A: inconclusive: 88.9%

Q: For Cc1c(OCc2ccc([N+](=O)[O-])cc2)ccc2c3c(c(=O)oc12)CCC3, which activation is on record?
A: inactive: 194%

Q: For COc1cc(OC)cc(C(=O)N[C@H](C(=O)OCC(=O)NC(=O)c2cccn2C)C(C)C)c1, which activation is on record?
A: inconclusive: 82.3%

Q: Which activation does the source give for COc1ccc(C(=O)NCc2cn3ccccc3n2)cc1 here?
A: inconclusive: 150%

Q: For COC(=O)c1ccc(NS(=O)(=O)c2ccc(SC)cc2)cc1, which activation is on record?
A: active: 730%

Q: With Cc1ccc(CSC2=NCCN2S(=O)(=O)c2ccccc2)cc1 as the compound, how does the activation read?
A: active: 464%

Q: With CCN1CC=C2C(C#N)=C(N)C(C#N)(C#N)[C@H](c3cccc(OC)c3OC)[C@H]2C1 as the compound, how does the activation read?
A: active: 614%

Q: Which activation does the source give for CC(=O)N1C2CCCCC2S[C@H]2CCCCC21 (stereo partly drawn) here?
A: active: 200%

Q: Which activation does the source give for c1ccc2nc3c(nc2c1)[nH]c1ccccc13 here?
A: active: 300%

Q: With Clc1ccc(CNC23CN4CN(CN(C4)C2)C3)c(Cl)c1 as the compound, how does the activation read?
A: inactive: 8.33%

Q: Which activation does the source give for Cc1noc(C)c1CSc1ccccc1C(=O)Nc1nccs1 here?
A: inactive: -9.09%

Q: Which activation does the source give for Clc1ccc(Cn2cc(Br)cn2)cc1Cl here?
A: inconclusive: 557%

Q: For Fc1ccc(C(Nc2ccccn2)c2c[nH]c3ccccc23)cc1 (stereo not drawn), which activation is on record?
A: inconclusive: 154%

Q: With O=[N+]([O-])c1ccc(N2CCN(c3ccc(Cl)nn3)CC2)cc1NC1CC1 as the compound, how does the activation read?
A: inactive: 276%

Q: Which activation does the source give for Cc1ccccc1NC(=O)COc1ccc(Br)cc1C here?
A: active: 431%

Q: For CCOC(=O)c1c(C)oc2ccc(NS(=O)(=O)c3ccc4c5c(cccc35)C(=O)N4)cc12, which activation is on record?
A: active: 506%

Q: With COc1nc(OCCNC(=O)Nc2ccccc2)nc(N(C)C)n1 as the compound, how does the activation read?
A: inactive: -3.12%

Q: For CCOC(=O)C(CC)Sc1ncnc2nc[nH]c12 (stereo not drawn), which activation is on record?
A: inactive: -2.63%

Q: With COc1cc(/C=N/Nc2cccc(C)c2)ccc1OC(=O)c1cccs1 as the compound, how does the activation read?
A: inconclusive: 233% [cytotoxic]

Q: Which activation does the source give for Cc1ccc(S(=O)(=O)N2CCN(C(=O)N3CCOCC3)C2C(C)C)cc1 (stereo not drawn) here?
A: inconclusive: 121%

Q: For OC(COCc1ccco1)CN1CCN(C(c2ccccc2)c2ccccc2)CC1 (stereo not drawn), which activation is on record?
A: active: 129%

Q: Which activation does the source give for O=C(CN(c1ccccc1)S(=O)(=O)c1ccc(Cl)cc1)Nc1ccccc1C(=O)N1CCCC1 here?
A: active: 93.5%

Q: Which activation does the source give for COCCCNC(=O)CSc1nc2c(sc3ccccc32)c(=O)n1CCCC(=O)NCC1CCCO1 (stereo not drawn) here?
A: inactive: -7.14%

Q: With CC1(C(=O)Oc2ccccc2)Cc2ccccc2C(=O)O1 (stereo not drawn) as the compound, how does the activation read?
A: inactive: -6.98%

Q: With O=C(OCCCN1CCCCC1)c1ccc(O)cc1 as the compound, how does the activation read?
A: inconclusive: 258%

Q: With Cc1nnc(NC(=O)c2sc3nc(-c4cccs4)cc(C(F)(F)F)c3c2N)s1 as the compound, how does the activation read?
A: active: 107% [may fluoresce]

Q: Which activation does the source give for CC(=O)Nc1nc2ccccc2n1CCOc1ccccc1Cl here?
A: inconclusive: 200%

Q: For Cc1ccc(C(=O)NCCn2c(N)c(C#N)c3nc4ccccc4nc32)cc1, which activation is on record?
A: inconclusive: 450%

Q: Which activation does the source give for CCCCCCNS(=O)(=O)c1ccc(NC(=O)C2CCCO2)cc1 (stereo not drawn) here?
A: inactive: 0%

Q: For Cc1nnc(N2CCN(C)CC2)c2nn(-c3ccc(Cl)cc3)c(C)c12, which activation is on record?
A: inactive: -3.45%

Q: With Cc1ccc(Cn2ccsc2=NC(=O)CCl)cc1 as the compound, how does the activation read?
A: inconclusive: 614% [cytotoxic]

Q: Which activation does the source give for N#CCSc1nnc(-c2sc3ccccc3c2Cl)o1 here?
A: inconclusive: 423%

Q: Which activation does the source give for CCN1C(=O)/C(=C\N2CCN(C)CC2)SC1=S here?
A: inactive: 9.09%

Q: With O=C(CN1C(=O)c2ccccc2S1(=O)=O)NCc1cccnc1 as the compound, how does the activation read?
A: inactive: -7.14%

Q: Which activation does the source give for N#CCSc1nnc(COc2ccccc2)n1-c1ccccc1 here?
A: inconclusive: 534%

Q: Which activation does the source give for CCOC(=O)CSC1=C(C#N)C(c2ccc(C)o2)CC(=O)N1 (stereo not drawn) here?
A: inconclusive: 520% [cytotoxic]

Q: For CCOC(=O)C(Sc1cc(C)nc(N)n1)C(C)=O (stereo not drawn), which activation is on record?
A: inconclusive: 77.4%

Q: Which activation does the source give for COC(=O)NNC(=O)COc1ccc(Cl)cc1 here?
A: inconclusive: 550%

Q: With O=C(O)c1ccc(COCC(F)(F)C(F)F)o1 as the compound, how does the activation read?
A: inconclusive: 136%

Q: For COc1cccc(-n2nnnc2SCC(=O)c2cc(OC)ccc2OC)c1, which activation is on record?
A: inactive: 7.41%

Q: For CCCc1cc(C(=O)Nc2nccs2)cs1, which activation is on record?
A: inconclusive: 617%

Q: For COc1ccc(-c2cc(O)cc(O)c2)cc1, which activation is on record?
A: inconclusive: 527%

Q: Which activation does the source give for O=S(=O)(NCC(c1cccnc1)N1CCN(c2ccccc2)CC1)c1cccs1 (stereo not drawn) here?
A: inconclusive: 80.7%

Q: With C/C(=N/Nc1ccc([N+](=O)[O-])cc1)c1ccc(C)cc1C as the compound, how does the activation read?
A: inconclusive: 76.5%

Q: With COC(=O)CCCCCNc1ccc(C(=O)OC)cc1N as the compound, how does the activation read?
A: inconclusive: 105%

Q: For O=S(=O)(c1ccc(Nc2ccc3c(c2)OCO3)nc1)N1CCOCC1, which activation is on record?
A: inactive: -71.4%

Q: For COc1ccc(NC(=O)CSc2nnc(CN3CCOCC3)n2-c2ccccc2)cc1Cl, which activation is on record?
A: inconclusive: 80.6%

Q: For Cc1ccc(C2C(C#N)=C(N)SC(N)=C2C#N)cc1, which activation is on record?
A: active: 121%

Q: With Cc1ccc(S(=O)(=O)N2CCC(C(=O)Nc3ccc4c(c3)OCO4)CC2)cc1 as the compound, how does the activation read?
A: inconclusive: 408%

Q: For CN(C)c1ccc(CNn2cnnc2)cc1, which activation is on record?
A: inconclusive: 456%
